Laboratory results: US20240368242A1
No constants are given. Whether binding was seen depends on the method and setting. Some entries that bind do so weakly or less than the wild type.

By UniProt entry, the sequences of proteins in these tests, tags left out. Residues count along the entry.
UniProt P27512, residues 24-193: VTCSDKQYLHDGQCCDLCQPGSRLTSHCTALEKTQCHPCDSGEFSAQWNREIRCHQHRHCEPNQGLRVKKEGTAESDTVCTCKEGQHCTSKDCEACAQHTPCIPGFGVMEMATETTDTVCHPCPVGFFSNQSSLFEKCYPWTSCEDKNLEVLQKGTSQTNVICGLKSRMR

Molecular target: recombinant murine CD40 protein (murine) (UniProt P27512)
Test: ELISA, plate-bound CD40, detection with αCD40L and HRP detection antibody; dilution series [right panel]

binding: binds
B1: mCD40L Standard (ligand)
chain: MQRGDEDPQIAAHVVSEANSNAASVLQWAKKGYYTMKSNLVMLENGKQLTVKREGLYYVYTQVTFCSNREPSSQRPFIVGLWLKPSSGSERILLKAANTHSSSQLCEQQSVHLGGVFELQAGASVFVNVTEASQVIHRVGFSSFGLLKL
